Experimental data reported in US20110236900, “NOVEL MUTS PROTEIN AND METHOD FOR DETERMING MUTATION USING THE SAME” (RIKEN, published 2011).
The exact form of at least one protein or probe is not confirmed. Protein sequences can lack the tags named with them.

What was measured:
[1] = tested on: T1, Aac MutS; experiment: SPR; conditions: purified recombinant protein, label: 5'-biotin on Del-strand, variant of C/G fully-matched duplex
T1 sequence: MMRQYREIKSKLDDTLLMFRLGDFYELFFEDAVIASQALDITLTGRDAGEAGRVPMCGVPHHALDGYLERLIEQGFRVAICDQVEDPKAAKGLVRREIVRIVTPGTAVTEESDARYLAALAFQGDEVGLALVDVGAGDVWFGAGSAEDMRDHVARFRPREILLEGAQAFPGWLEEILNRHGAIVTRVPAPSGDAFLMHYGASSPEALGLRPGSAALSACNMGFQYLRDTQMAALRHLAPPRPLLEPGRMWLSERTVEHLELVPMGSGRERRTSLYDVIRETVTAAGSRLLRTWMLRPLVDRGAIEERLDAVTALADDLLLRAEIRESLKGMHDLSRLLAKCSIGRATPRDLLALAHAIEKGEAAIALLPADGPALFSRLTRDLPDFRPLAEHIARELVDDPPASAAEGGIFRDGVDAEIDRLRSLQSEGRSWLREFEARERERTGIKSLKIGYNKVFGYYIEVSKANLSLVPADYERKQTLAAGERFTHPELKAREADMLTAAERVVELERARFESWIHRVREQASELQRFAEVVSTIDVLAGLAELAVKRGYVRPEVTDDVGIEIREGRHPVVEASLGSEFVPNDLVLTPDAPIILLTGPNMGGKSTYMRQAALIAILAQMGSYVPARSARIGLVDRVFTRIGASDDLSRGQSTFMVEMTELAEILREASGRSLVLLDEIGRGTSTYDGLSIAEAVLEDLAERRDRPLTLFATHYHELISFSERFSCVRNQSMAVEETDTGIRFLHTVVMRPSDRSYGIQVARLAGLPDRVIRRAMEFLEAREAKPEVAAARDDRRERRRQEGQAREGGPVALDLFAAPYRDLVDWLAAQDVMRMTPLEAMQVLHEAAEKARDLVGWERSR

[2] = biological target: T2, Taq MutS (Thermus aquaticus) (UniProt Q56215); experiment: SPR; conditions: purified recombinant protein, label: 5'-biotin on Del-strand, variant of C/G fully-matched duplex
T2 sequence (looked up, limits assumed): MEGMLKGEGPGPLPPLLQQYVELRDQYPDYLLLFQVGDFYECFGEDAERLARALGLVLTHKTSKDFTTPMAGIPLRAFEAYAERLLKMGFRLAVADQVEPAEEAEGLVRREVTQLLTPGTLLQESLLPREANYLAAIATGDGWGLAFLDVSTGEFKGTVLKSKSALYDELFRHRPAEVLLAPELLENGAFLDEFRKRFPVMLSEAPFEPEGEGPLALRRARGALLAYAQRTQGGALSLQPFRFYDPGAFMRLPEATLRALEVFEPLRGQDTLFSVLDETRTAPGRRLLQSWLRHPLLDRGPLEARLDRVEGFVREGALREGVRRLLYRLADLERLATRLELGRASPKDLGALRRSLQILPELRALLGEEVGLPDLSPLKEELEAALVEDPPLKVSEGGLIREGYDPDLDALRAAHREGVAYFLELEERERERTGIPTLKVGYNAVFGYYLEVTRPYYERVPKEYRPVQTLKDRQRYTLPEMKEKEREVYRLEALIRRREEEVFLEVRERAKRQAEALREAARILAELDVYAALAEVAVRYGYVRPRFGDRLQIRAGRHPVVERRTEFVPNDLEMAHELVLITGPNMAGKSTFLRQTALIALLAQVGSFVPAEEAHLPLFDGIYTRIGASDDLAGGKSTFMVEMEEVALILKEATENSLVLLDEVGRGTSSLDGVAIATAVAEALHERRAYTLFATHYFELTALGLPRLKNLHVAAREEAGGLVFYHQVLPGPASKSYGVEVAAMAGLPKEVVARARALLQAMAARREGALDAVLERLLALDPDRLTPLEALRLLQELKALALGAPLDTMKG

Measured: binding result

CCGCTGAATTGCACCGAGCTGATCCTCGATGATCCTAAGCGATCCATG / CATGGATCGCTTAGGATCATCGAGGATCGAGCTCGGTGCAATTCAGCGG [Del/G deletion duplex]
binds: [1]; 1 mM ADP, binding increased and dissociation suppressed | [1]; 1 mM ATP, binding increased | [1]; no nucleotide, 0.1-4 uM MutS, slow dissociation | [2]; 1 mM ADP, almost same as without ADP | [2]; 1 mM ATP, almost same as without ATP | [2]; no nucleotide, rapid dissociation
